Reference: PubChem BioAssay AID652259 (Drosophila RNAi Screening Center, 2013)

Purpose: 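Knock-downs that push a Wingless-driven reporter up or down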 (primary screen)
System: Drosophila clone 8 imaginal disc epithelial cells
Knock-down reagent: long dsRNA against Drosophila genes
Challenge: pathway stimulated by co-transfected Wingless expression plasmid
Read-out: 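Firefly luciferase from a tcf-site Wingless reporter, measured alongside co-transfected Renilla luciferase that tracks transfection; pathway stimulated by a Wingless plasmid; the firefly-to-Renilla ratio is not deposited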
Direction: firefly reporter light: higher = more Wg reporter light, before normalisation; Renilla control light: higher = more transfected or surviving cells
Call rule: 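a knock-down is a candidate when at least two out of four statistical tests show it departing from its plate mean; one test alone signals a weak candidate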
Meaning of the calls: active = candidate regulator (raises or lowers reporter); inactive = not a candidate
The deposit covers about 22,000 reagents; this is a random part of those with a known target gene and a result. Of all reagents, 233 (1.1%) are marked active. 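Light values are raw, unnormalised plate reads; the ratio scores behind the reporter calls were not deposited.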 Reagents against one gene are numbered here. Names joined by + are all predicted targets of the reagent. The record does not give: the amount of reagent, the time to read-out, the dose of the treatment.

| target | reagent | reporter change call, replicate 1 | firefly reporter light, replicate 1 | firefly reporter light, replicate 2 | Renilla control light, replicate 1 | Renilla control light, replicate 2 | call |
| --- | --- | --- | --- | --- | --- | --- | --- |
| ppk | 1 | – | 2032 | 5857 | 1101 | 2392 | inactive |
| CG43058 | 1 | – | 19162 | – | 15948 | – | inactive |
| Npc2d | 1 | – | 13149 | – | 3546 | – | inactive |
| NKAIN | 1 | – | 13936 | – | 3628 | – | inactive |
| NKAIN | 2 | – | 4.20e5 | 3.97e5 | 1.62e5 | 1.55e5 | inactive |
| MtnC | 1 | – | 5.43e5 | 5.81e5 | 2.36e5 | 1.40e5 | inactive |
| Bbd | 1 | – | 7536 | – | 2428 | – | inactive |
| CG10055 | 1 | – | 13444 | – | 3915 | – | inactive |
| lva | 1 | – | 3569 | 8726 | 1728 | 3432 | inactive |
| CG4820 | 1 | – | 15891 | – | 4304 | – | inactive |
| CG9010 | 1 | – | 12329 | – | 3120 | – | inactive |
| CG10713 | 1 | – | 7508 | – | 1623 | – | inactive |
| CG32201 | 1 | – | 5.11e5 | 5.32e5 | 1.86e5 | 1.62e5 | inactive |
| CG5290 | 1 | – | 5452 | – | 1798 | – | inactive |
| CG13008 | 1 | – | 20883 | – | 8977 | – | inactive |
| CG13008 | 2 | – | 15216 | – | 8102 | – | inactive |
| CG15208 | 1 | – | 1610 | 4608 | 613 | 1920 | inactive |
| CG2898 | 1 | – | 13836 | – | 8907 | – | inactive |
| MsR2 | 1 | – | 10192 | – | 4348 | – | inactive |
| MsR2 | 2 | – | 5304 | – | 2477 | – | inactive |
| MsR2 | 3 | – | 5.84e5 | 5.23e5 | 1.99e5 | 1.14e5 | inactive |
| CG15446 | 1 | – | 18354 | – | 9323 | – | inactive |
| CG43740 | 1 | – | 18864 | – | 8346 | – | inactive |
| CG43740 | 2 | – | 19824 | – | 13154 | – | inactive |
| CARPB | 1 | – | 4428 | 11633 | 1465 | 3035 | inactive |
| CARPB | 2 | – | 31360 | – | 11331 | – | inactive |
| CG4476 | 1 | – | 1569 | 7219 | 1384 | 3286 | inactive |
| Gp150 | 1 | – | 3578 | 11593 | 931 | 5939 | inactive |
| pAbp | 1 | – | 7708 | – | 2440 | – | inactive |
| CG11227 | 1 | – | 17505 | – | 10709 | – | inactive |
| Acat1 | 1 | – | 2400 | 6741 | 1200 | 1993 | inactive |
| CG42382 | 1 | – | 2352 | 9301 | 605 | 3595 | inactive |
| Obp56h | 1 | – | 6515 | – | 1909 | – | inactive |
| ec | 1 | – | 2214 | – | 1027 | – | inactive |
| ec | 2 | – | 1520 | – | 1501 | – | inactive |
| ec | 3 | Wg reporter activity raised | 43913 | – | 8036 | – | inactive |
| retinin | 1 | – | 7186 | – | 2519 | – | inactive |
| lncRNA:CR43493 + l(1)G0196 | 1 | – | 4662 | 10834 | 1553 | 2688 | inactive |
| NUCB1 | 1 | – | 5.08e5 | 5.34e5 | 2.09e5 | 1.93e5 | inactive |
| CG14400 | 1 | – | 2496 | 8130 | 838 | 2960 | inactive |
| Gs1l | 1 | – | 2288 | 4875 | 736 | 1729 | inactive |
| bwa | 1 | – | 16560 | – | 9072 | – | inactive |
| bwa | 2 | – | 4248 | 6976 | 912 | 3304 | inactive |
| CG15260 | 1 | – | 3260 | 5293 | 1217 | 2743 | inactive |
| CG15615 | 1 | – | 4681 | – | 2246 | – | inactive |
| lin | 1 | – | 2731 | 10776 | 442 | 4544 | inactive |
| CG4186 | 1 | – | 14672 | – | 4869 | – | inactive |
| Srp68 | 1 | – | 2867 | – | 1149 | – | inactive |
| CG32984 | 1 | – | 5.32e5 | 5.29e5 | 3.15e5 | 1.94e5 | inactive |
| CG5162 | 1 | – | 21817 | – | 10053 | – | inactive |
| COX5BL | 1 | – | 2829 | 8738 | 981 | 3363 | inactive |
| qkr58E-2 | 1 | – | 1936 | 5383 | 380 | 2809 | inactive |
| Prosalpha3 | 1 | – | 1056 | 4231 | 268 | 1353 | inactive |
| mas | 1 | – | 6283 | – | 2242 | – | inactive |
| CG5399 | 1 | – | 9493 | – | 3056 | – | inactive |
| Cdc16 | 1 | – | 14135 | – | 9465 | – | inactive |
| LanA | 1 | – | 4176 | – | 1826 | – | inactive |
| ppk26 | 1 | – | 977 | 6932 | 1234 | 3072 | inactive |
| CG13833 | 1 | – | 20953 | – | 14025 | – | inactive |
| eIF4H1 | 1 | – | 18220 | – | 7067 | – | inactive |
| Pfdn1 | 1 | – | 2544 | 7801 | 816 | 2619 | inactive |
| CG13747 | 1 | – | 2305 | 8608 | 897 | 3099 | inactive |
| Sc2 | 1 | – | 4392 | – | 2579 | – | inactive |
| CanB | 1 | – | 21603 | – | 12592 | – | inactive |
| BNIP3 | 1 | – | 11805 | – | 3338 | – | inactive |
| CG31431 | 1 | – | 38386 | – | 7639 | – | inactive |
| CG34428 | 1 | – | 5552 | – | 2312 | – | inactive |
| mmd | 1 | – | 25760 | – | 8061 | – | inactive |
| mmd | 2 | – | 17389 | – | 9040 | – | inactive |
| mmd | 3 | – | 14323 | – | 9175 | – | inactive |
| CG15452 | 1 | – | 16692 | – | 7328 | – | inactive |
| CG14762 | 1 | – | 19154 | – | 10488 | – | inactive |
| CG14762 | 2 | – | 3274 | 6117 | 982 | 2289 | inactive |

Only “Renilla control light, replicate 1”, for 9 of the entries above:
NKAIN #1 = 3628
NKAIN #2 = 1.62e5
MtnC = 2.36e5
Bbd = 2428
CG10055 = 3915
lva = 1728
CG4820 = 4304
CG9010 = 3120
CG10713 = 1623
